Drawing on publication PMC6642208, this text covers binding for four substances.

These are yes or no findings as the source states them, for the method shown. Binding seen in cells or lysates may run through a third protein. A yes stands for co-enrichment or nearness to the bait. Other partners may have been found.

In experiment [1] the target is T1, gN-TurboID-3xHA (UniProt Q40392).
T1 sequence: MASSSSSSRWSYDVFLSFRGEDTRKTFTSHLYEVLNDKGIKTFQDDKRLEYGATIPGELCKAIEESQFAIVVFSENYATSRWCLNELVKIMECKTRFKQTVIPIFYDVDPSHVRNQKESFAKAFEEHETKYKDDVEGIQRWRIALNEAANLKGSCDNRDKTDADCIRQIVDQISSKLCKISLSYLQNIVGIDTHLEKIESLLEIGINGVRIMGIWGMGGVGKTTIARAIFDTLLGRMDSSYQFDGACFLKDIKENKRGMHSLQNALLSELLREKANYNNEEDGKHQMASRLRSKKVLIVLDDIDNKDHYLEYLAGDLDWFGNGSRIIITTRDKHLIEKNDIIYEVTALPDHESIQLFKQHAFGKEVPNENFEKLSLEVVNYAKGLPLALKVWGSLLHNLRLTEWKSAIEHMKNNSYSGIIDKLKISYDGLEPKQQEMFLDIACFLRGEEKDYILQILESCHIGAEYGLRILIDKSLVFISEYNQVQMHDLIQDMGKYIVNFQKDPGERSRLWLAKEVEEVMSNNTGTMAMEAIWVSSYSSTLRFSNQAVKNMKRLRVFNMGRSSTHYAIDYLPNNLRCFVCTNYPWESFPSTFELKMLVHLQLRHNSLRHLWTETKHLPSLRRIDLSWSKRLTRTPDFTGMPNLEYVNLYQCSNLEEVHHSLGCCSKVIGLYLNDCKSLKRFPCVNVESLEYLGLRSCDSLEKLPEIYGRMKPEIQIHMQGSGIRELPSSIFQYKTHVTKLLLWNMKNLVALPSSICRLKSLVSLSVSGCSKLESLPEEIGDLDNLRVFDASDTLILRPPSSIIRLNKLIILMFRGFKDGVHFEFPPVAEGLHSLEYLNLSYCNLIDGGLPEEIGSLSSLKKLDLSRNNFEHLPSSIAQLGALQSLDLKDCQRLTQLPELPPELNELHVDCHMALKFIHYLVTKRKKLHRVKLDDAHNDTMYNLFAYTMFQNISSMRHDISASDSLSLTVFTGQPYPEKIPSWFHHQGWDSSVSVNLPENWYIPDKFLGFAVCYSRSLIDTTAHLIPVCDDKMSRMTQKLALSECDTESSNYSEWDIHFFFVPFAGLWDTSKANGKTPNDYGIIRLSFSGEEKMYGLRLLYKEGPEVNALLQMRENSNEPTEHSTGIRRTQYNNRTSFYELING
The experiment can be described thus: proximity labelling; Group I, without p50: TurboID fusions in N. benthamiana leaves, 200 µM biotin and 30 µM 17-β-estradiol for 12 h, streptavidin beads, TMT labelling, 2D-LC-MS/MS; enriched >1.5 fold over Citrine-TurboID, q < 0.05.

The target in experiment [2] is T1, gN-TurboID-3xHA. The experiment is described as follows: proximity labelling; same TurboID labelling and TMT LC-MS/MS; results told for 'the MS dataset' (Supplementary Data 1 and 2) without saying which group (with or without p50) or which bait.

Turning to NbUBR7 (endogenous), the binding entry in experiment [1] is reported as “binds”.

Regarding NbMAP65 (endogenous), the binding result in experiment [2] is recorded as “binds”.

Consider NbAsp (endogenous), for which the binding entry in experiment [2] is recorded as “binds”.

Turning to NbTPL4 (endogenous), in experiment [2], the binding entry is recorded as “binds”.
